In PubChem BioAssay AID1487 (National Center for Advancing Translational Sciences (NCATS), 2009) one finds AC50 data, which are given here for 17 compounds.

The list shows a part of the results. Further columns of the screen follow, without active or inactive calls. The list favours compounds with an active or inconclusive main result. Words in brackets tell the shape of the fitted curve; partial curves, single points and poor fits give uncertain potencies.

This experiment is described as follows: qHTS Assay for Modulators of Lamin A Splicing. The note with it: HeLa LMNA splicing GFP/RFP minigene ratio, 48 h. Summed up: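 S3 HeLa cells stably expressing lamin A-EGFP splicing minigene plus DsRed2, 600 cells/well, 48 h compound exposure at 37C. Laser-scanning cytometry; analysed as GFP (500-530 nm)/RFP (575-640 nm) total intensity ratio; 0.5% DMSO vehicle.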
(In qHTS, concentration-response curves come from the screen itself.)

Where [1] appears, read: measured here: RFP viability control channel.
Setting [2] is: measured here: GFP splicing reporter channel.

Consider `O=C(/C=C/c1ccccc1)NC(=S)Nc1ccc(CN2CCOCC2)cc1`, for which the AC50 (usually the concentration giving half of the maximal activity seen) under setting [1] was 14.1 µM [rising, partial curve].
On to `O=C(CSCc1nc2cccnc2n1C1CCCCC1)NCc1cccc(Br)c1`, for which the AC50 is, setting by setting: under setting [2], 0.0355 µM [rising, full curve, poor fit]; under setting [1], 0.224 µM [rising, full curve, poor fit].
For `CC(C)(C)C(=O)NCCc1nc2ccccc2n1CC(=O)c1ccc(Cl)cc1`, the half-maximal activity concentration (AC50) under setting [1] is 11.2 µM [rising, single point].
On the same count and under the same terms, the result for `Cc1ccc2scc(N3CCN(c4ccccc4)CC3)c(=O)c2c1` reads 20 µM [rising, single point]; that for `CCOCCCNC(=O)c1cc(Sc2ccc(F)cc2)nc2ccccc12`, 35.5 µM [rising, single point].
As for `CS(=O)(=O)c1nc(-c2ccco2)cc(C(F)(F)F)n1`, the AC50 under setting [2] is 11.2 µM [rising, single point].
With `N/C(=N\c1nc2c(c(=O)[nH]1)CCC2)Nc1cccc(Cl)c1`, the AC50 under setting [1] is 31.6 µM [rising, single point].
Consider `CC(=O)Nc1ccccc1C(=O)N1CCN(c2cccc(C)c2C)CC1`, for which, under setting [2], the concentration at half-maximal activity (AC50) is 2.82 µM [falling, partial curve, poor fit].
On to `CCOCCCNC(=O)CN1C(=O)CSc2ccccc21`, for which the AC50 under setting [1] was 3.16 µM [rising, single point].
Turning to `COc1ccc(-n2nc(C)cc2N)cc1`, the AC50 under setting [1] is 11.2 µM [falling, partial curve, poor fit].
Consider `N#CC1=C(SCC(=O)Nc2cccc3cccnc23)NC(=O)C(C#N)C12CCCCC2` (stereo not given), for which the concentration at half-maximal activity (AC50) under setting [1] was 28.2 µM [rising, single point].
On the same count and under the same terms, the result for `CCc1ccc(NC(=O)c2c(Cl)nc(C)c(Cl)c2C)cc1` reads 35.5 µM [rising, single point].
As to `COc1cc(Cl)c(NS(=O)(=O)c2ccc3[nH]c(=O)ccc3c2)c(OC)c1`, under setting [1], the AC50 was 0.0224 µM [falling, full curve, poor fit].
For `CCCCC(=O)NC1(C(F)(F)F)C(=O)Nc2c1c(=O)[nH]c(=O)n2-c1ccc(F)cc1` (stereo not given), the AC50 under setting [2] was 5.62 µM [rising, single point].
With `Cc1ccc(-c2nnc(N3CCN(C(=O)c4ccco4)CC3)c3ccccc23)cc1`, the AC50 under setting [2] is 35.5 µM [rising, single point] and the AC50 under setting [1] was 35.5 µM [rising, single point].
For the compound `O=C(O)C1CC=CCC1C(=O)NNc1ccccc1` (stereo not given), the AC50 under setting [2] is 0.00447 µM [rising, full curve, poor fit].
For `Cc1cccc(NC(=S)NNC(=S)NCc2ccccc2)c1`, the AC50 is, setting by setting: under setting [2], 35.5 µM [rising, single point]; under setting [1], 17.8 µM [rising, single point].
